# Cell number after 72 h of treatment

Source: doi:10.1371/journal.pone.0140310, primary screening data, rounded.

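Human melanoma cell lines in 1,536-well plates were treated with a single drug for 72 h, then fixed, stained and imaged. The read-out is cell count (nuclei) in % of the DMSO control; lower values mean stronger growth inhibition or killing. Concentrations were fixed for each drug; these are the higher of two levels. These are primary screening values without error estimates.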 This is part of the screen, not chosen by result.

| # | Drug | COLO 829 | WM115 | RPMI-7951 |
|---|---|---|---|---|
| 1 | O=C(O)c1ccc2c(c1)nc(Nc1cccc(Cl)c1)c1ccncc12 at 2 µM | 52.3 | 88.0 | 69.7 |
| 2 | O=S(=O)(c1ccccc1)N(CC(F)(F)F)c1ccc(C(O)(C(F)(F)F)C(F)(F)F)cc1 at 7 µM | 71.8 | 89.0 | 92.2 |
| 3 | O=C(O)C(=O)Nc1sc2c(c1C(=O)O)CCNC2 at 8.33 µM | 93.8 | 81.5 | 93.4 |
| 4 | C=CCNC1=C2C[C@@H](C)C[C@H](OC)[C@H](O)[C@@H](C)/C=C(\C)[C@H](OC(N)=O)[C@@H](OC)/C=C\C=C(/C)C(=O)NC(=CC1=O)C2=O at 0.01 µM | 78.5 | 27.1 | 30.9 |
| 5 | CCCCCCCCCCCC1=C(O)C(=O)C=C(O)C1=O at 6 µM | 71.8 | 103 | 92.1 |
| 6 | NCC(=O)Nc1ccc(-n2nc(C(F)(F)F)cc2-c2ccc3c(ccc4ccccc43)c2)cc1 at 5 µM | 62.9 | 95.0 | 111 |
| 7 | C/C(O)=C(\C#N)C(=O)Nc1cc(Br)ccc1Br at 10 µM | 82.3 | 109 | 116 |
| 8 | C[C@@H](N)c1ccc(C(=O)Nc2ccnc3[nH]ccc23)cc1 at 2 µM | 94.6 | 86.5 | 59.3 |
| 9 | CCN(CC)CCNC(=O)c1c(C)[nH]c(/C=C2\C(=O)Nc3ccc(F)cc32)c1C at 2 µM | 119 | 57.9 | 66.5 |
| 10 | CCc1ccc(CCOc2ccc(CC3SC(=O)NC3=O)cc2)nc1 (stereo not drawn) at 10 µM | 89.6 | 96.4 | 104 |
| 11 | O=C(/C=C/c1cccnc1)NCCCCC1CCN(C(=O)c2ccccc2)CC1 at 0.05 µM | 56.4 | 106 | 130 |
| 12 | Nc1nc(F)nc2c1ncn2[C@@H]1O[C@H](CO)[C@@H](O)[C@@H]1O at 1 µM | 117 | 100 | 67.5 |
| 13 | CS(=O)(=O)c1ccc(C(=O)Nc2ccc(Cl)c(-c3ccccn3)c2)c(Cl)c1 at 5 µM | 84.0 | 104 | 105 |
| 14 | C=C(c1ccc(C(=O)O)cc1)c1cc2c(cc1C)C(C)(C)CCC2(C)C at 10 µM | 92.4 | 117 | 94.1 |
| 15 | CN(c1ncccc1CNc1nc(Nc2ccc3c(c2)CC(=O)N3)ncc1C(F)(F)F)S(C)(=O)=O at 0.4 µM | 87.3 | 65.9 | 43.4 |
| 16 | N.N.[Cl][Pt][Cl] at 8 µM | 73.1 | 85.2 | 103 |
| 17 | Cn1c(Nc2ccc(C(F)(F)F)cc2)nc2cc(Oc3ccnc(-c4ncc(C(F)(F)F)[nH]4)c3)ccc21 at 0.4 µM | 58.3 | 34.9 | 47.6 |
| 18 | Nc1ncn([C@H]2C[C@H](O)[C@@H](CO)O2)c(=O)n1 at 0.5 µM | 76.6 | 94.8 | 85.2 |
| 19 | Cc1cc(Nc2cc(N3CCN(C)CC3)nc(Sc3ccc(NC(=O)C4CC4)cc3)n2)n[nH]1 at 0.03 µM | 55.7 | 55.0 | 70.7 |
| 20 | Cc1ccc(NC(=O)c2cccc(N(C)C)c2)cc1NC(=O)c1ccc(O)cc1 at 10 µM | 89.4 | 91.0 | 66.5 |
| 21 | Cn1cnc2c(F)c(Nc3ccc(Br)cc3Cl)c(C(=O)NOCCO)cc21 at 0.075 µM | 94.2 | 80.0 | 118 |
| 22 | Cn1nnc2c(C(N)=O)ncn2c1=O at 10 µM | 77.7 | 100 | 78.5 |
| 23 | CC1(C)CCC(c2ccc(Cl)cc2)=C(CN2CCN(c3ccc(C(=O)NS(=O)(=O)c4ccc(N[C@H](CCN5CCOCC5)CSc5ccccc5)c(S(=O)(=O)C(F)(F)F)c4)cc3)CC2)C1 at 2 µM | 77.2 | 104 | 44.1 |
| 24 | CC(=O)c1c(C)c2cnc(Nc3ccc(N4CCNCC4)cn3)nc2n(C2CCCC2)c1=O at 0.2 µM | 87.8 | 44.6 | 62.8 |
| 25 | N#Cc1c(O)c2c(-c3ccc(-c4ccccc4O)cc3)csc2[nH]c1=O at 10 µM | 88.3 | 107 | 83.5 |
| 26 | O=C1NC(=O)/C(=C/c2ccc(-c3ccc(F)cc3O)o2)S1 at 5 µM | 83.3 | 91.2 | 91.1 |
| 27 | Cn1cc(C2=C(c3cn(C4CCN(Cc5ccccn5)CC4)c4ccccc34)C(=O)NC2=O)c2ccccc21 at 4 µM | 115 | 99.5 | 63.0 |
| 28 | CCCCCCCCc1ccc(CCC(N)(CO)CO)cc1 at 10 µM | 47.9 | 8.5 | 1.9 |
| 29 | COc1ccc(COc2ccc(Cc3cnc(N)nc3N)cc2OC)cc1 at 5 µM | 86.7 | 94.9 | 96.0 |
| 30 | Cc1cc(Nc2cc(N3CCN(C)CC3)nc(/C=C/c3ccccc3)n2)n[nH]1 at 0.2 µM | 84.8 | 86.7 | 71.3 |
| 31 | Cc1nc(Nc2ncc(C(=O)Nc3c(C)cccc3Cl)s2)cc(N2CCN(CCO)CC2)n1 at 0.02 µM | 60.5 | 66.2 | 37.1 |
| 32 | CS(=O)(=O)CCNCc1ccc(-c2ccc3ncnc(Nc4ccc(OCc5cccc(F)c5)c(Cl)c4)c3c2)o1 at 4 µM | 72.9 | 94.9 | 41.5 |
| 33 | O=C(CCCCCCC(=O)Nc1ccccc1)NO at 0.4 µM | 81.1 | 73.4 | 90.9 |
| 34 | CC(C)(C)c1cnc(CSc2cnc(NC(=O)C3CCNCC3)s2)o1 at 0.05 µM | 73.7 | 90.8 | 45.9 |
| 35 | CC[C@]1(O)C[C@H]2CN(CCc3c([nH]c4ccccc34)[C@@](C(=O)OC)(c3cc4c(cc3OC)N(C=O)[C@H]3[C@@](O)(C(=O)OC)[C@H](OC(C)=O)[C@]5(CC)C=CCN6CC[C@]43[C@@H]65)C2)C1 at 0.0005 µM | 109 | 105 | 70.7 |
| 36 | CCCCCCCCCCCCCCCCCCOP(=O)([O-])OC1CC[N+](C)(C)CC1 at 2 µM | 120 | 106 | 21.0 |